In publication PMC3219604:
Substitutions are numbered along the chain they refer to. The exact form of at least one protein or probe is not confirmed. Where a protein sequence is shown, tags need not be part of it.

Columns and labels:
Assay in all cases: EMSA
[1] = target: T1, OrfAB-GFP GMF34 R13H R28H (UniProt P51026); conditions: 20 mM Tris-Cl pH 8.0, 1 mM EDTA, 5 ug/mL calf thymus DNA, 10 nM DNA, 0.11-0.13 uM protein, 30 min at 20 C; gels at 4 C; recombinant protein; protein details: 6xHis, C-terminal GFPuv; label: 5'-32P upper strand; counted as no binding
T1 sequence (looked up, limits assumed): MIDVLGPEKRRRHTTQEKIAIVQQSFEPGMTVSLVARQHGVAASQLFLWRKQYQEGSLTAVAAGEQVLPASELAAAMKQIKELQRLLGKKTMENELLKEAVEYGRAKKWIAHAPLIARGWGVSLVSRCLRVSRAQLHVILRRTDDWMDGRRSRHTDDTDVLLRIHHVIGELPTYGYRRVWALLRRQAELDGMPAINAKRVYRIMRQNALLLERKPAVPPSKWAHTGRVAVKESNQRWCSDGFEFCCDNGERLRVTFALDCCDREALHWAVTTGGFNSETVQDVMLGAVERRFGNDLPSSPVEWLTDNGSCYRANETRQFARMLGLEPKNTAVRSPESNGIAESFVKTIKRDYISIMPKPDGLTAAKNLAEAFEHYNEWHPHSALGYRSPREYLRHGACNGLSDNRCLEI

[2] = target: T2, OrfAB-GFP GMF7 N94D N109D (UniProt P51026); conditions: panel (50- or 87-mer) not stated in material; 20 mM Tris-Cl pH 8.0, 1 mM EDTA, 5 ug/mL calf thymus DNA, 10 nM DNA, 0.11-0.13 uM protein, 30 min at 20 C; gels at 4 C; recombinant protein; protein details: 6xHis, C-terminal GFPuv; label: 5'-32P upper strand
T2 sequence (looked up, limits assumed): T1 sequence (looked up, limits assumed) with H13R, N94D

OrfAB-GFP GMF6 Q79L Q94L = target: T3, OrfAB-GFP GMF6 Q79L Q94L (UniProt P51026); conditions: 20 mM Tris-Cl pH 8.0, 1 mM EDTA, 5 ug/mL calf thymus DNA, 10 nM DNA, 0.11-0.13 uM protein, 30 min at 20 C; gels at 4 C; recombinant protein; protein details: 6xHis, C-terminal GFPuv; label: 5'-32P upper strand
T3 sequence (looked up, limits assumed): T1 sequence (looked up, limits assumed) with H13R, Q79L

[3] = target: T4, OrfAB-GFP GMF71 E391K E406K (UniProt P51026); conditions: 20 mM Tris-Cl pH 8.0, 1 mM EDTA, 5 ug/mL calf thymus DNA, 10 nM DNA, 0.11-0.13 uM protein, 30 min at 20 C; gels at 4 C; recombinant protein; protein details: 6xHis, C-terminal GFPuv; label: 5'-32P upper strand
T4 sequence (looked up, limits assumed): T1 sequence (looked up, limits assumed) with H13R, E391K

[4] = target: T5, OrfAB-GFP GMF36 R37Q/S44N R52Q,S59N (UniProt P51026); conditions: 20 mM Tris-Cl pH 8.0, 1 mM EDTA, 5 ug/mL calf thymus DNA, 10 nM DNA, 0.11-0.13 uM protein, 30 min at 20 C; gels at 4 C; recombinant protein; protein details: 6xHis, C-terminal GFPuv; label: 5'-32P upper strand
T5 sequence (looked up, limits assumed): T1 sequence (looked up, limits assumed) with H13R, R37Q, S44N

OrfAB-GFP GMF4 A42T A57T = target: T6, OrfAB-GFP GMF4 A42T A57T (UniProt P51026); conditions: 20 mM Tris-Cl pH 8.0, 1 mM EDTA, 5 ug/mL calf thymus DNA, 10 nM DNA, 0.11-0.13 uM protein, 30 min at 20 C; gels at 4 C; recombinant protein; protein details: 6xHis, C-terminal GFPuv; label: 5'-32P upper strand
T6 sequence (looked up, limits assumed): T1 sequence (looked up, limits assumed) with H13R, A42T

Sequence “GGATCCTTAAGTGATAACAGATGTCTGGAAATATAGGGGCAAATCCAGCG (double strand) [IRR 50-mer]” has a binding signal (binding score (0-5)) [1] of 0, a binding signal (binding score (0-5)) [2] of 3 and a binding signal (binding score (0-5)) (OrfAB-GFP GMF6 Q79L Q94L) of 2.5. For the same sequence, the binding signal (binding score (0-5)) [3] was 2.5, the binding signal (binding score (0-5)) [4] was 2 and the binding signal (binding score (0-5)) (OrfAB-GFP GMF4 A42T A57T) was 5.
